Assay results from patent publication US20090036507A1, “BIS (CYANOPHENYL) METHYL-TRIAZOLE FOR USE IN PREVENTION OF BREAST CANCER” (priority 2001, published 2009).
Entries after “also recorded” stand apart in the source; their conditions may differ. At least one compound was matched to its structure with a doubt left.

Assays:
[1] = tested on: estrogen receptor (ER), progesterone receptor (PR), cyclin D1 and proliferating cell nuclear antigen (PCNA); assay: Western blot of ER, PR, cyclin D1 and PCNA protein levels in mammary tissues; format: in vivo, mice; conditions: for level of PCNA in mammary tissue / level of cyclin D1 in mammary tissue: Western blot
Description: (§1) Aged (about 16-20 weeks old) virgin aromatase transgenic females were used to investigate the effect of the aromatase inhibitor, COMPOUND I, as a chemopreventive agent against the preneoplastic and neoplastic changes induced in mammary glands of these mice. In this study, age-matched transgenic females were divided into four groups, one group (n=10) served as control group, the other groups received daily s.c. injection of COMPOUND I and three different doses; 0.25, 05, 1.0 μg COMPOUND I per animal in 100 μl of 0.3% hydroxy propyl cellulose (in phospate buffered saline). Control animals were given s.c. injection of vehicle. COMPOUND I was a gift from Drs. Ajay Bhatnagar and Dean Evans of Novartis Pharma (Basel, Switzerland). At the end of the 6-week treatment, mammary glands were removed and one gland each was used for histological analysis. All other glands were pooled then used for biochemical analysis as described below. Along with the mammary glands, uterus and ovaries was collected for biochemical and histological analyses.
(§2) To isolate proteins from mammary gland and uterine tissue of both control and COMPOUND I-treated aromatase animals, the tissues were homogenized in lysis buffer. Equal amounts (60 ug) of protein from each sample was separated on a denaturing polyacrylamide gel and transferred to a nylon membrane. Non-speci.c binding of antibodies were blocked by incubation for at least 4 h at room temperature with Tris-buffered saline (TBS) containing 0.05% Triton X-100 (TBST) and 5% nonfat dry milk. Membranes were then incubated with respective primary antibodies (actin, ER, PR, lactoferrin, PCNA and cyclin D1) in TBST-milk overnight at 4° C., and specific binding was visualized by using species-specific (secondary antibodies) IgG followed by enhanced chemiluminescent detection (ECL Kit; Amersham Pharmacia Biotech, N.J.) and exposure to ECL X-ray film. Densitometric data from Western blots (X-ray image of chemiluminescent detection antibody-bound protein) were used for calculating the differences in the expression of individual proteins. Expression of actin, a house keeping protein, was used for normalization as an invariant control if needed.

[2] = tested on: lactoferrin, ER, and PR; assay: Western blot of lactoferrin, ER and PR protein levels in uterus tissue; format: in vivo, mice
Description: as §1, §2

[3] = tested on: aromatase transgenic mice; conditions: 5 μg/mouse/daily, previous studies; cited from earlier work
[4] = tested on: aromatase transgenic mice; assay: Effect on aromatase-induced mammary hyperplasia and preneoplastic/neoplastic changes (mammary gland histology); format: in vivo; conditions: for aromatase-induced preneoplastic changes: s.c., 6 weeks, aromatase transgenic females
[5] = treated animals, dose not specified

N#Cc1ccc(C(c2ccc(C#N)cc2)n2cncn2)cc1 [COMPOUND I]
level of PCNA in mammary tissue ([1]; 0.25 μg per day per animal): no significant change | level of cyclin D1 in mammary tissue ([1]; 0.25 μg per day per animal): no significant change | level of PCNA in mammary tissue ([1]; 0.5 μg per day per animal): no significant change | level of cyclin D1 in mammary tissue ([1]; 0.5 μg per day per animal): no significant change | protein level of ER in mammary tissues [1, 5]: decreases | protein level of PR in mammary tissues [1, 5]: decreases | expression of the uterine marker lactoferrin vs control ([2]; 0.25 μg-treated animals): no difference | expression of the uterine marker lactoferrin vs control ([2]; 0.5 μg-treated animals): no difference | expression of ER in the uterus ([2]; treated animals): No difference | expression of PR in the uterus ([2]; treated animals): No difference | aromatase-induced preneoplastic/neoplastic (hyperplastic and other) changes in breast tissue [3]: completely abrogate or reduce; also recorded: completely abrogate | aromatase-induced preneoplastic changes ([4]; 0.25 μg per day per animal): completely abrogate | aromatase-induced preneoplastic changes ([4]; 0.5 μg per day per animal): completely abrogate | aromatase-induced preneoplastic changes ([4]; 1 μg per day per animal): completely abrogate | hyperplasia and other preneoplastic and neoplastic changes induced by overexpression of aromatase ([4]; aromatase females treated for 6 weeks, dose not given): complete reduction/disappearance
